In paper PMC10023806 one finds binding data, which are given here for 26 molecules.

Chains of the proteins cited; added tags and fusions are not shown.
UniProt Q9Y4A5: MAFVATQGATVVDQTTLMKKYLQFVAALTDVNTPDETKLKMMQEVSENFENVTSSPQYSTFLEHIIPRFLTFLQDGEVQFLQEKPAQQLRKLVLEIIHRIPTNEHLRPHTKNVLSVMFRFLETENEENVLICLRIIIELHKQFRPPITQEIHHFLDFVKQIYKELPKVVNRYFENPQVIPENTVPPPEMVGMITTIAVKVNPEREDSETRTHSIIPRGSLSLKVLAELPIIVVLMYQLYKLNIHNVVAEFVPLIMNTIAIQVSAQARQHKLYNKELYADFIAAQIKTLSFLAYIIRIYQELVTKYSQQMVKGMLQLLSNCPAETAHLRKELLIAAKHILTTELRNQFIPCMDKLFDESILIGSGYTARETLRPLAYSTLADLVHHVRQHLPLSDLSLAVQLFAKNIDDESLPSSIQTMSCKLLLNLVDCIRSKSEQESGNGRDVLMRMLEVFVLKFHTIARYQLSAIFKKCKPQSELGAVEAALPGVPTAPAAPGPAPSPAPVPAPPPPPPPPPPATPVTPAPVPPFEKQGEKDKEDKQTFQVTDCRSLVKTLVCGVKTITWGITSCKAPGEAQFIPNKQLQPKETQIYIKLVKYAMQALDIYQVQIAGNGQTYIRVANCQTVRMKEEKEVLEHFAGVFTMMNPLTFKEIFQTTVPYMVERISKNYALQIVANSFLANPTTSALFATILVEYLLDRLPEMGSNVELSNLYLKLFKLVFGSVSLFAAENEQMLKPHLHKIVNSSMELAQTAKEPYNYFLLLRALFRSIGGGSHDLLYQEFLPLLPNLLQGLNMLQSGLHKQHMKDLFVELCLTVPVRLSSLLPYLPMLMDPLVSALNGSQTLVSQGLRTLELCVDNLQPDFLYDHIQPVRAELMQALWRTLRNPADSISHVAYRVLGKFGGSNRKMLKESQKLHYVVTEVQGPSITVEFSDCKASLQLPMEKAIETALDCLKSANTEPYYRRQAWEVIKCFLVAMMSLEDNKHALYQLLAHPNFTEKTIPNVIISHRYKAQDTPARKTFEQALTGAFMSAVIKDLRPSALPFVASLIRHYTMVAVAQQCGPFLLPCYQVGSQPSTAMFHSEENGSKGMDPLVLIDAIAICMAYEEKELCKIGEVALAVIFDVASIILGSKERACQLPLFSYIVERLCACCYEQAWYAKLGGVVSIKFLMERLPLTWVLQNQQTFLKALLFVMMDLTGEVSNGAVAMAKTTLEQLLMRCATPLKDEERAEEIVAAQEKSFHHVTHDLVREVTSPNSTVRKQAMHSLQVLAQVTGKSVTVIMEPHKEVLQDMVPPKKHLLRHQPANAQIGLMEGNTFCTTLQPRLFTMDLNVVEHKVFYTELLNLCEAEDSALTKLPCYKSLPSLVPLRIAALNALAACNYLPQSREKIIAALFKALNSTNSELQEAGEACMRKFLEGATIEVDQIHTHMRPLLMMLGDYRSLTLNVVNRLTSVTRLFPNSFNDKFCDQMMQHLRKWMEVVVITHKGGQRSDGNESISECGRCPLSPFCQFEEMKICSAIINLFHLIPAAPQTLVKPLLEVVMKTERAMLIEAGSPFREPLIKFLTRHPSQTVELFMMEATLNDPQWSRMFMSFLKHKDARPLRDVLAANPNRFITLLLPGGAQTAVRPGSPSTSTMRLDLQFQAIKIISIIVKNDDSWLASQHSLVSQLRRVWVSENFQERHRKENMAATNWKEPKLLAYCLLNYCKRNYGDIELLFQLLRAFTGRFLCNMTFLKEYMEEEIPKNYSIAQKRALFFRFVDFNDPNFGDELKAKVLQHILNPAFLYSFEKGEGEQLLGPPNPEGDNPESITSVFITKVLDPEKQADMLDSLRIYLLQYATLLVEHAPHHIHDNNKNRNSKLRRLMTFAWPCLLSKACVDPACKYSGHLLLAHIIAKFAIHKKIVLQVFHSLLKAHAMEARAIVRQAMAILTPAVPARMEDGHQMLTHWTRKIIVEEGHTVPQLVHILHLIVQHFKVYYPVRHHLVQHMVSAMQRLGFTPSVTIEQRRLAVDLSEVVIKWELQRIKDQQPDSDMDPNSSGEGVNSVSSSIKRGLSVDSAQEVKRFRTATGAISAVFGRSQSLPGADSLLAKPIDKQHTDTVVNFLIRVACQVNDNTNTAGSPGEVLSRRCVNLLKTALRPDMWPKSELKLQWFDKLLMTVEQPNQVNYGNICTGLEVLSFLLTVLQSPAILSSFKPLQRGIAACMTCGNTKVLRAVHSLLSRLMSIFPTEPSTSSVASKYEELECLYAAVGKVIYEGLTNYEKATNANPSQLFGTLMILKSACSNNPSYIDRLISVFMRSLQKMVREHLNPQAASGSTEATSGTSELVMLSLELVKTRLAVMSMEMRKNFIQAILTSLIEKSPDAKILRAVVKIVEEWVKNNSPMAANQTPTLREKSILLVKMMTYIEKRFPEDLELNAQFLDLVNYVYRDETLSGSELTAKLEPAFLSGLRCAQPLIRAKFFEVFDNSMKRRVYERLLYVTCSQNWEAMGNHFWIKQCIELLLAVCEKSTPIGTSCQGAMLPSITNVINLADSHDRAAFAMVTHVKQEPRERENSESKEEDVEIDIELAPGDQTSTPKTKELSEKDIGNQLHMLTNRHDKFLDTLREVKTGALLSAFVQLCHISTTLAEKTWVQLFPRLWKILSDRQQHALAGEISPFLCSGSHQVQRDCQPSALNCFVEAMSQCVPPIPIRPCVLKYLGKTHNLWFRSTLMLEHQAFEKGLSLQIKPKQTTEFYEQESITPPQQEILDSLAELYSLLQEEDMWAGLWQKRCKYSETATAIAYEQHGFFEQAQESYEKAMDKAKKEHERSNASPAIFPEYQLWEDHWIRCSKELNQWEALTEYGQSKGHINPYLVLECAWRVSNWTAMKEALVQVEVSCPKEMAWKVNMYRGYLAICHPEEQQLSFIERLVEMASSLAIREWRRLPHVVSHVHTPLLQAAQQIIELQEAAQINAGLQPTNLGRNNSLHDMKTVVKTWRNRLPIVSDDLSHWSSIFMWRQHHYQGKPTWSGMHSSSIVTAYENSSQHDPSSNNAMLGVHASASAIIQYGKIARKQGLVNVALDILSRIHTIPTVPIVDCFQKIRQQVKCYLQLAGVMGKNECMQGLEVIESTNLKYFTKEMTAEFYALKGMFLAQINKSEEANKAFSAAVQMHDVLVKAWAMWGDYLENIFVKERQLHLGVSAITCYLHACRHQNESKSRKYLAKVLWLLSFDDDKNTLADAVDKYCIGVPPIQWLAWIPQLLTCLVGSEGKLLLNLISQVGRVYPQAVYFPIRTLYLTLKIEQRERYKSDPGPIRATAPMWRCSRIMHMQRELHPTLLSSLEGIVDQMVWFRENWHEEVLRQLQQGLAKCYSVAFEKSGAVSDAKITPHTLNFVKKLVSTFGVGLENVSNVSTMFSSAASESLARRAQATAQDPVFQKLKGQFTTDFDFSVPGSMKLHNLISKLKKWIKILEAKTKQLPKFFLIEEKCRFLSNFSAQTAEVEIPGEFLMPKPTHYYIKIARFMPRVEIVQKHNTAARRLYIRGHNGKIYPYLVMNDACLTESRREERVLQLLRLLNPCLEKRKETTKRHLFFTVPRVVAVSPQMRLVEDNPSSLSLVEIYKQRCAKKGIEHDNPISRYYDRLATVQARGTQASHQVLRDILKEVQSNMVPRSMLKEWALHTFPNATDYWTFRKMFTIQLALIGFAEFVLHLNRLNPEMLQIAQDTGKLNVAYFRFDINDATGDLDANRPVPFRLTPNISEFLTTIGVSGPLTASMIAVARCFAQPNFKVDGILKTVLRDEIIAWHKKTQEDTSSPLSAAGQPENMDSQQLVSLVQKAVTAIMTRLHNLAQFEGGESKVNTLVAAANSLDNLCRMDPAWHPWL
UniProt Q15329: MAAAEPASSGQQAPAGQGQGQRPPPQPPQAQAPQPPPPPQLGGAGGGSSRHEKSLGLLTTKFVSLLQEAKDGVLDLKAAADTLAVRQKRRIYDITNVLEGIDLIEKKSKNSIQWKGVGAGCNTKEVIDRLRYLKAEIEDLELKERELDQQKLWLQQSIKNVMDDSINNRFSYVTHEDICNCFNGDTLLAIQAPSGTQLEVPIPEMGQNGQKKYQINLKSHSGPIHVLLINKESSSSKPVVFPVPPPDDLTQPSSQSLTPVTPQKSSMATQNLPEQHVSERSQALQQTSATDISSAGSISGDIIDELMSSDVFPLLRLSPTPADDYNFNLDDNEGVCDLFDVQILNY
UniProt Q14186: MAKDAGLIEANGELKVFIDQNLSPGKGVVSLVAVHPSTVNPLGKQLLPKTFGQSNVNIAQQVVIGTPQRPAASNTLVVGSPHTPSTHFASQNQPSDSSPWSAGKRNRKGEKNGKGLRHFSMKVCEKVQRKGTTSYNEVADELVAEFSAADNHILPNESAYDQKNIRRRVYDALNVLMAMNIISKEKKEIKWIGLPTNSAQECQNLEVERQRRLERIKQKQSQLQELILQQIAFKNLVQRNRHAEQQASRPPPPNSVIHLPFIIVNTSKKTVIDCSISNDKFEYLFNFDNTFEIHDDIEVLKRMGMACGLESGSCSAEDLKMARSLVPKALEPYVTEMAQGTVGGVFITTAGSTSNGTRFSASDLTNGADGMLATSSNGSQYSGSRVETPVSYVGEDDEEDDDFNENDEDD
UniProt Q9NZM4: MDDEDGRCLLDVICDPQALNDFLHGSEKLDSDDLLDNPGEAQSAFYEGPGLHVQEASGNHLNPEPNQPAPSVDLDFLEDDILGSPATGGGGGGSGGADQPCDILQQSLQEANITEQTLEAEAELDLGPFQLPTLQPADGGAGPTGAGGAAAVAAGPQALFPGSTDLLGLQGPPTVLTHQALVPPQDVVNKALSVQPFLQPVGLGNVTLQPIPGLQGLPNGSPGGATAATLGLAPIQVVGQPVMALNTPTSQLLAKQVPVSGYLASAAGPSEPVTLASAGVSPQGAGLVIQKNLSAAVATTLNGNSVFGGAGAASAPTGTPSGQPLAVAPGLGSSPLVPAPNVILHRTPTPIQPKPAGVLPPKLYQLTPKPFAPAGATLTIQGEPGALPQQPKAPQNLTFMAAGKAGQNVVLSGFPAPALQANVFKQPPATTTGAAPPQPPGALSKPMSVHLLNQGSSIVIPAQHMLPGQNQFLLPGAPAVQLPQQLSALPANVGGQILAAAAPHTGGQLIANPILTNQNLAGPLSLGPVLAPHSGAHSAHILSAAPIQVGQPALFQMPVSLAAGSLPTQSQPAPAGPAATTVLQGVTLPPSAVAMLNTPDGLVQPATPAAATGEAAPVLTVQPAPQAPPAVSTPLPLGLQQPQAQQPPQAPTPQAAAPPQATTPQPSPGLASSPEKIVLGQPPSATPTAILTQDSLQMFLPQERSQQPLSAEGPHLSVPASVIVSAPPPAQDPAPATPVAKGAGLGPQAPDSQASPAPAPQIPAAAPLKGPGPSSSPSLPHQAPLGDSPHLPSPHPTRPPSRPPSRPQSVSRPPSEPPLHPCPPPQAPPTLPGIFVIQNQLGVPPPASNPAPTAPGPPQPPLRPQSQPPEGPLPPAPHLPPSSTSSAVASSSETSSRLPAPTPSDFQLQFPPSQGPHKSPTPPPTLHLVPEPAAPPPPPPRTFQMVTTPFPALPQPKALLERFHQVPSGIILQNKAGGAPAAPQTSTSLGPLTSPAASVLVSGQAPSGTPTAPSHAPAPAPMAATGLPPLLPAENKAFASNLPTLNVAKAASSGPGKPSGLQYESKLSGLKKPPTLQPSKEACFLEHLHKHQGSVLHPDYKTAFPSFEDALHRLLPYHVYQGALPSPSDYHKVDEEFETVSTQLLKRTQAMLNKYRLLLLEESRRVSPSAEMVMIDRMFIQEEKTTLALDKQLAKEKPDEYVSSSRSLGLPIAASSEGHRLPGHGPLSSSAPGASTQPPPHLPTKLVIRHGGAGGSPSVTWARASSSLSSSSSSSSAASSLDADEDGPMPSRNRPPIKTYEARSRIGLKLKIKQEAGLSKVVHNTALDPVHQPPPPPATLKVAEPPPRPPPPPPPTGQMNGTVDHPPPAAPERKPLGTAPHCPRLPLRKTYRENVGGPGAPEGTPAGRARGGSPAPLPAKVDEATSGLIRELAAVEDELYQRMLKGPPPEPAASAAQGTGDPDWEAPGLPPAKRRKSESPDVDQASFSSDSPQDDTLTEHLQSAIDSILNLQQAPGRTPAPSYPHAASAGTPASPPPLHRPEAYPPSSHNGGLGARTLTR
UniProt Q16254: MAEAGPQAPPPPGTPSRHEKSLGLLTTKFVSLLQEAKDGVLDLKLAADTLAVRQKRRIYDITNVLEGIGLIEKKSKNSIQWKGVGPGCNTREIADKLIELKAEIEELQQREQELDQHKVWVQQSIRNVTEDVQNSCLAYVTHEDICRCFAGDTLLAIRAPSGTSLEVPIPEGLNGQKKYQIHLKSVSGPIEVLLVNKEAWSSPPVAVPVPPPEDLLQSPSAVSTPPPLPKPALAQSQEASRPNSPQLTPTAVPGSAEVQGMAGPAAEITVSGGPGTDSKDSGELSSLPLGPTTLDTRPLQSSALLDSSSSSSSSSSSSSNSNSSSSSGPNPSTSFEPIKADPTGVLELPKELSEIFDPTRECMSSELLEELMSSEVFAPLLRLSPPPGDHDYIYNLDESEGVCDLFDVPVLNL

No constants are given. Whether binding was seen depends on the method and setting. In cells and extracts the contact can be indirect. Here binding means that the protein was enriched with, or labelled near, the bait; the list need not be complete. A no says only that the protein was not detected with the bait. Sequences can lack the tags named with a protein.

Assay [1] concerns the target T1, FLAG-BirA*-MCIDAS (human) (UniProt D6RGH6).
T1 sequence: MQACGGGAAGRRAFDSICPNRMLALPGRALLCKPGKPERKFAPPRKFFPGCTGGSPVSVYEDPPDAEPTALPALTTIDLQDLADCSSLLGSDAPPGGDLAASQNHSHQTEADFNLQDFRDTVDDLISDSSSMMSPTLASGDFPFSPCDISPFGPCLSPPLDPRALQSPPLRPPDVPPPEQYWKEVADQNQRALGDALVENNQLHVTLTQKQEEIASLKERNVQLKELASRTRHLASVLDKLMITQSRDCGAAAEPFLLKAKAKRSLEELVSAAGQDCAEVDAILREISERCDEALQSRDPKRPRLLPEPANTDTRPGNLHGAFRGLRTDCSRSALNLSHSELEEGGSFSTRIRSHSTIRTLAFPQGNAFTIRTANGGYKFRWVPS
Briefly: proximity labelling; BioID-MS: FLAG-BirA* fusions transiently expressed in AD-293 cells with 50 uM biotin; lysis in modified RIPA, benzonase; biotinylated proteins isolated on streptavidin-sepharose, trypsin, mass spectrometry, SAINTexpress; FLAG-BirA* alone as control.

For assay [2], the target named is T2, FLAG-BirA*-GEMC1 (human) (UniProt A6NCL1).
T2 sequence: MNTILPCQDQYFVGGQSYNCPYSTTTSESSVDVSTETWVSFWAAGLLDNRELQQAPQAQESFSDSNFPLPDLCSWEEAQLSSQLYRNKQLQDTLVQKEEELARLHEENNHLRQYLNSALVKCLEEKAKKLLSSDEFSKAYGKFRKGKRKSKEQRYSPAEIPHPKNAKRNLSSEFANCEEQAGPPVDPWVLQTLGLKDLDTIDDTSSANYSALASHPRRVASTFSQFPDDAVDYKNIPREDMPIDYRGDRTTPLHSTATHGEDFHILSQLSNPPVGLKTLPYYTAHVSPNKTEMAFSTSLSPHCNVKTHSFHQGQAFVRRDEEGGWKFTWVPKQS
Described as above.

For the molecule CDC20 (from UniProt Q12834 1-499), the binding result in assay [1] was “binds”.

Turning to “MYB-B (MYBL2) (from UniProt P10244 1-700)”, the binding result in assay [2] and in assay [1] was “binds” each time.

On to LIN52 (from UniProt Q52LA3 1-112), for which the binding entry in assay [2] and in assay [1] was “binds” throughout.

Consider ARNT (from UniProt P27540 1-789), for which, in assay [2], the binding result is recorded as “binds”.

As for TRRAP (from UniProt Q9Y4A5 1-3859), the binding entry in assay [2] and in assay [1] was “binds” in each case.

CBP (from UniProt Q92793 1-2442): the binding result in assay [2] and in assay [1] was “binds” throughout.

Regarding p300 (from UniProt Q09472 1-2414), the binding entry in assay [2] and in assay [1] was “binds” in each case.

For the molecule E2F5 (from UniProt Q15329 1-346), the binding entry in assay [2] and in assay [1] was “binds” throughout.

In the case of “histone deacetylase 2 (from UniProt Q92769 1-488)”, the binding result in assay [2] and in assay [1] was “no binding” each time.

For the molecule DP1 (TFDP1) (from UniProt Q14186 1-410), the binding entry in assay [2] and in assay [1] was “binds” in each case.

“histone deacetylase 1 (from UniProt Q13547 1-482)”: the binding entry in assay [2] and in assay [1] was “no binding” each time.

Regarding “Aryl hydrocarbon receptor (AHR) (from UniProt P35869 11-848)”, in assay [2], the binding entry was “binds”.

With E2F3 (from UniProt O00716 1-465), the binding result in assay [2] and in assay [1] was “binds” in each case.

Regarding PLK1 (from UniProt P53350 1-603), the binding entry in assay [1] was “binds”.

For BICRA (from UniProt Q9NZM4 1-1560), in assay [1], the binding result is listed as “binds”.

As to “SMARCA4 (BRG1) (from UniProt P51532 1-1647)”, the binding entry in assay [2] and in assay [1] was “binds” in each case.

In the case of LIN9 (from UniProt Q5TKA1 1-542), the binding entry in assay [2] and in assay [1] was “binds” throughout.

For LIN54 (from UniProt Q6MZP7 1-749), the binding entry in assay [2] and in assay [1] was “binds” throughout.

As for E2F4 (from UniProt Q16254 1-413), the binding entry in assay [2] and in assay [1] was “binds” in each case.

Turning to “Cyclin A (CCNA2) (from UniProt P20248 1-432)”, the binding result in assay [2] is listed as “binds”.

B1: AIP (protein, UniProt O00170 1-330)
chain: MADIIARLREDGIQKRVIQEGRGELPDFQDGTKATFHYRTLHSDDEGTVLDDSRARGKPMELIIGKKFKLPVWETIVCTMREGEIAQFLCDIKHVVLYPLVAKSLRNIAVGKDPLEGQRHCCGVAQMREHSSLGHADLDALQQNPQPLIFHMEMLKVESPGTYQQDPWAMTDEEKAKAVPLIHQEGNRLYREGHVKEAAAKYYDAIACLKNLQMKEQPGSPEWIQLDQQITPLLLNYCQCKLVVEEYYEVLDHCSSILNKYDDNVKAYFKRGKAHAAVWNAQEAQADFAKVLELDPALAPVVSRELRALEARIRQKDEEDKARFRGIFSH
For the molecule B1, the binding result in assay [2] is recorded as “binds”.

B2: ELMSAN1/MIDEAS (protein, UniProt Q6PJG2 1-1045)
chain: MNLQAQPKAQNKRKRCLFGGQEPAPKEQPPPLQPPQQSIRVKEEQYLGHEGPGGAVSTSQPVELPPPSSLALLNSVVYGPERTSAAMLSQQVASVKWPNSVMAPGRGPERGGGGGVSDSSWQQQPGQPPPHSTWNCHSLSLYSATKGSPHPGVGVPTYYNHPEALKREKAGGPQLDRYVRPMMPQKVQLEVGRPQAPLNSFHAAKKPPNQSLPLQPFQLAFGHQVNRQVFRQGPPPPNPVAAFPPQKQQQQQQPQQQQQQQQAALPQMPLFENFYSMPQQPSQQPQDFGLQPAGPLGQSHLAHHSMAPYPFPPNPDMNPELRKALLQDSAPQPALPQVQIPFPRRSRRLSKEGILPPSALDGAGTQPGQEATGNLFLHHWPLQQPPPGSLGQPHPEALGFPLELRESQLLPDGERLAPNGREREAPAMGSEEGMRAVSTGDCGQVLRGGVIQSTRRRRRASQEANLLTLAQKAVELASLQNAKDGSGSEEKRKSVLASTTKCGVEFSEPSLATKRAREDSGMVPLIIPVSVPVRTVDPTEAAQAGGLDEDGKGPEQNPAEHKPSVIVTRRRSTRIPGTDAQAQAEDMNVKLEGEPSVRKPKQRPRPEPLIIPTKAGTFIAPPVYSNITPYQSHLRSPVRLADHPSERSFELPPYTPPPILSPVREGSGLYFNAIISTSTIPAPPPITPKSAHRTLLRTNSAEVTPPVLSVMGEATPVSIEPRINVGSRFQAEIPLMRDRALAAADPHKADLVWQPWEDLESSREKQRQVEDLLTAACSSIFPGAGTNQELALHCLHESRGDILETLNKLLLKKPLRPHNHPLATYHYTGSDQWKMAERKLFNKGIAIYKKDFFLVQKLIQTKTVAQCVEFYYTYKKQVKIGRNGTLTFGDVDTSDEKSAQEEVEVDIKTSQKFPRVPLPRRESPSEERLEPKREVKEPRKEGEEEVPEIQEKEEQEEGRERSRRAAAVKATQTLQANESASDILILRSHESNAPGSAGGQASEKPREGTGKSRRALPFSEKKKKTETFSKTQNQENTFPCKKCGR
As to B2, in assay [2], the binding result is recorded as “binds”.

B3: CDT1 (protein, UniProt Q9H211 1-546)
chain: MEQRRVTDFFARRRPGPPRIAPPKLACRTPSPARPALRAPASATSGSRKRARPPAAPGRDQARPPARRRLRLSVDEVSSPSTPEAPDIPACPSPGQKIKKSTPAAGQPPHLTSAQDQDTISELASCLQRARELGARVRALKASAQDAGESCTPEAEGRPEEPCGEKAPAYQRFHALAQPGLPGLVLPYKYQVLAEMFRSMDTIVGMLHNRSETPTFAKVQRGVQDMMRRRFEECNVGQIKTVYPASYRFRQERSVPTFKDGTRRSDYQLTIEPLLEQEADGAAPQLTASRLLQRRQIFSQKLVEHVKEHHKAFLASLSPAMVVPEDQLTRWHPRFNVDEVPDIEPAALPQPPATEKLTTAQEVLARARNLISPRMEKALSQLALRSAAPSSPGSPRPALPATPPATPPAASPSALKGVSQDLLERIRAKEAQKQLAQMTRCPEQEQRLQRLERLPELARVLRSVFVSERKPALSMEVACARMVGSCCTIMSPGEMEKHLLLLSELLPDWLSLHRIRTDTYVKLDKAADLAHITARLAHQTRAEEGL
With B3, the binding result in assay [1] is on record as “binds”.

B4: DNTTIP1 (protein, UniProt Q9H147 1-329)
chain: MGATGDAEQPRGPSGAERGGLELGDAGAAGQLVLTNPWNIMIKHRQVQRRGRRSQMTTSFTDPAISMDLLRAVLQPSINEEIQTVFNKYMKFFQKAALNVRDNVGEEVDAEQLIQEACRSCLEQAKLLFSDGEKVIPRLTHELPGIKRGRQAEEECAHRGSPLPKKRKGRPPGHILSSDRAAAGMVWKPKSCEPIRREGPKWDPARLNESTTFVLGSRANKALGMGGTRGRIYIKHPHLFKYAADPQDKHWLAEQHHMRATGGKMAYLLIEEDIRDLAASDDYRGCLDLKLEELKSFVLPSWMVEKMRKYMETLRTENEHRAVEAPPQT
As for B4, in assay [2], the binding entry was “binds”.

B5: Geminin (protein, UniProt O75496 1-209)
chain: MNPSMKQKQEEIKENIKNSSVPRRTLKMIQPSASGSLVGRENELSAGLSKRKHRNDHLTSTTSSPGVIVPESSENKNLGGVTQESFDLMIKENPSSQYWKEVAEKRRKALYEALKENEKLHKEIEQKDNEIARLKKENKELAEVAEHVQYMAELIERLNGEPLDNFESLDNQEFDSEEETVEDSLVEDSEIGTCAEGTVSSSTDAKPCI
In the case of B5, the binding result in assay [2] was “binds”.

B6: DP-2 (TFDP2) (protein, UniProt Q14188 1-446)
chain: MTAKNVGLTSTNAEVRGFIDQNLSPTKGNISFVAFPVSNTNSPTKILPKTLGPINVNVGPQMIISTPQRLTSSGSVLIGSPYTPAPAMVTQTHIAEATGWVPGDRKRARKFIDSDFSESKRSKKGDKNGKGLRHFSMKVCEKVQRKGTTSYNEVADELVSEFTNSNNHLAADSAYDQKNIRRRVYDALNVLMAMNIISKEKKEIKWIGLPTNSAQECQNLEIEKQRRIERIKQKRAQLQELLLQQIAFKNLVQRNRQNEQQNQGPPALNSTIQLPFIIINTSRKTVIDCSISSDKFEYLFNFDNTFEIHDDIEVLKRMGMSFGLESGKCSLEDLKLAKSLVPKALEGYITDISTGPSWLNQGLLLNSTQSVSNLDLTTGATLPQSSVNQGLCLDAEVALATGQFLAPNSHQSSSAASHCSESRGETPCSFNDEDEEDDEEDSSSPE
With B6, the binding entry in assay [2] and in assay [1] was “binds” in each case.
